Test results published in the supplement of paper PMC10849652.
The list shows a part of the results.

Chains of the proteins cited; added tags and fusions are not shown. Lines headed by an entry give the natural chain unless they say otherwise; changes in a name come on top.
UniProt O00442: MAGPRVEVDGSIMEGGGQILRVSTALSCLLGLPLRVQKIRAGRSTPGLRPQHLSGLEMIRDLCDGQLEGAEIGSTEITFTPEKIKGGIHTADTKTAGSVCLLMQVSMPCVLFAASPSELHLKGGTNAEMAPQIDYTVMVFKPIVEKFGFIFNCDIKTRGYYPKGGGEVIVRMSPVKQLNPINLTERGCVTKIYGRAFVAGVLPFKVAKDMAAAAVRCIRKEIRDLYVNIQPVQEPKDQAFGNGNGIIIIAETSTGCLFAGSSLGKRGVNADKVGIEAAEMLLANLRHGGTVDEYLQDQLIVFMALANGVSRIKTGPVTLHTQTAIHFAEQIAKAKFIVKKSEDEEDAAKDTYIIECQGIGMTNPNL
UniProt Q5VZM2, whole entry, looked up: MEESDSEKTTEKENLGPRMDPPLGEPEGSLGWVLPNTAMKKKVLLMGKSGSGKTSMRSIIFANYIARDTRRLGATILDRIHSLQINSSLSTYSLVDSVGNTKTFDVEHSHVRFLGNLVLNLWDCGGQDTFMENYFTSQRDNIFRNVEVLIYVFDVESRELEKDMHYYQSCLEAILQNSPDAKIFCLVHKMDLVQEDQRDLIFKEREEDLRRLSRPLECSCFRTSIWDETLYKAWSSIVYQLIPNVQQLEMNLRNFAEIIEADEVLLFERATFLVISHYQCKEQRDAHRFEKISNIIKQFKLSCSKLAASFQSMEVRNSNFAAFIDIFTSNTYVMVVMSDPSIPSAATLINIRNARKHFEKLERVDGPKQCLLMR
UniProt O75298: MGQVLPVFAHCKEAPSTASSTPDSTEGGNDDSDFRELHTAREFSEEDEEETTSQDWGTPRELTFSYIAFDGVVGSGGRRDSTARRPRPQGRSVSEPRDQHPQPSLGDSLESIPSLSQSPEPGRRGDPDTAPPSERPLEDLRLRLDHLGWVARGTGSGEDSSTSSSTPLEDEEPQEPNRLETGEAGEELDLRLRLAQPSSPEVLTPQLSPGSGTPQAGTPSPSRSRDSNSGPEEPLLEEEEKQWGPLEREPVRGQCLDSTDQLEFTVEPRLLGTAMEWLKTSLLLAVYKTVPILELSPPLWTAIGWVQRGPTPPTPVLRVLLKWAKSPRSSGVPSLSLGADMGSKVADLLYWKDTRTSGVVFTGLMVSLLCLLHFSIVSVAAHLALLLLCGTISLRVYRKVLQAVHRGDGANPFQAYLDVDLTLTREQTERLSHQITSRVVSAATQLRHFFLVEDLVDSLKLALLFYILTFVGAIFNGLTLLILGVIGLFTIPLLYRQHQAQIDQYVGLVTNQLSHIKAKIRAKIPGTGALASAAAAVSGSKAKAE
UniProt Q99584: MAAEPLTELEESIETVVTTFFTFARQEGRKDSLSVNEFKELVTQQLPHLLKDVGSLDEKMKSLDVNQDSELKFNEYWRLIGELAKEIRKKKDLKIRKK
UniProt Q9Y3B9: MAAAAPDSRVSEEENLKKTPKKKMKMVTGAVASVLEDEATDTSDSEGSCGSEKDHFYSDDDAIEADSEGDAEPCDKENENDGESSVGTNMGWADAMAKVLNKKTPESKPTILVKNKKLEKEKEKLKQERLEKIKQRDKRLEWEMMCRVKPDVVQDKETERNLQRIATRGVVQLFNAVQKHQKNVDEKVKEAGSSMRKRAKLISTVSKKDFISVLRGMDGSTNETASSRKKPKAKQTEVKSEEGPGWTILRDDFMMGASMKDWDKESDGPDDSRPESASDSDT
UniProt Q96T51: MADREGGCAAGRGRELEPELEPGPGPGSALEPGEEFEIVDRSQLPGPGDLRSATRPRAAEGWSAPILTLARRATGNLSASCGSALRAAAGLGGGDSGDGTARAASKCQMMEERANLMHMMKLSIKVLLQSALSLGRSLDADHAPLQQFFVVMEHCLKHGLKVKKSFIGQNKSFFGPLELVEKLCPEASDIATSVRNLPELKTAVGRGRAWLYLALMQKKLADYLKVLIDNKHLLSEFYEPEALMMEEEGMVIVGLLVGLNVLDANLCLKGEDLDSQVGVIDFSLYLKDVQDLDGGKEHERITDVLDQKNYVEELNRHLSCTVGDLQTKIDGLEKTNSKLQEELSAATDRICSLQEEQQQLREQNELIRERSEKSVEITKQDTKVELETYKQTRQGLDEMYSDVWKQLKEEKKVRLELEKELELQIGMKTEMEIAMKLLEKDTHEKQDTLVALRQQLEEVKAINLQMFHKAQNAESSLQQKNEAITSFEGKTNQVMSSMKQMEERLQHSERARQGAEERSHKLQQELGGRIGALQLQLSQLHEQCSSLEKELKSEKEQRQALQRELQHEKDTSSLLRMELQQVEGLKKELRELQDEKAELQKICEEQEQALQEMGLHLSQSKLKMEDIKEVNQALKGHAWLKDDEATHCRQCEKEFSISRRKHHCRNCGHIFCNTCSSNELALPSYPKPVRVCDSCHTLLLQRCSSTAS
UniProt Q9H446: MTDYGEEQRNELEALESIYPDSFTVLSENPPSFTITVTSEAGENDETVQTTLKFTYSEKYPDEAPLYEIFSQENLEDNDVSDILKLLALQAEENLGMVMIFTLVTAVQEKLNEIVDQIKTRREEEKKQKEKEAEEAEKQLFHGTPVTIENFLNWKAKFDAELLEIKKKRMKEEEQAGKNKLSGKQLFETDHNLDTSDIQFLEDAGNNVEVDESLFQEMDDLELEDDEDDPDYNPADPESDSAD
UniProt P31350, whole entry, looked up: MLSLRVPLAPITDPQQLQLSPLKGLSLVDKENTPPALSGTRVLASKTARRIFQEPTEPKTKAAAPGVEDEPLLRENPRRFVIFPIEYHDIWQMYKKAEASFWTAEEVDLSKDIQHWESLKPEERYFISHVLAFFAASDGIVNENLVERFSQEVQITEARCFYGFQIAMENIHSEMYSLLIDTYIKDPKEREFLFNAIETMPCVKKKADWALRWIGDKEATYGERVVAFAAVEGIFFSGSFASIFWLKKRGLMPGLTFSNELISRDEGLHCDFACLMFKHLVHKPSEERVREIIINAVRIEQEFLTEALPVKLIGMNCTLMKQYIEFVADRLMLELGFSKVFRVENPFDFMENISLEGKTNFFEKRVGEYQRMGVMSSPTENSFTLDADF
UniProt P56182: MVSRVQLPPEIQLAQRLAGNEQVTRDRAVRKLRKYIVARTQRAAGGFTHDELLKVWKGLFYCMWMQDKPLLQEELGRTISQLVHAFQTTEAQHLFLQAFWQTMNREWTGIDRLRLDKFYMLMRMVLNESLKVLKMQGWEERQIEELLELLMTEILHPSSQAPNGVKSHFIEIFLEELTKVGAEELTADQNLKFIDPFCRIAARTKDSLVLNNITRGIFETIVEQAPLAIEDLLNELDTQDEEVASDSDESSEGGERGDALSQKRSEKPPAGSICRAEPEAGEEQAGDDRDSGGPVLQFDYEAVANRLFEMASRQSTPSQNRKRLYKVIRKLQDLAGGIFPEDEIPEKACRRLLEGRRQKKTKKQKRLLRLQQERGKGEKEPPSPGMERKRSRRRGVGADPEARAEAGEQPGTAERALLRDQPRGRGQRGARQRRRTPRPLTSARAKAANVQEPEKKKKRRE
UniProt O95197: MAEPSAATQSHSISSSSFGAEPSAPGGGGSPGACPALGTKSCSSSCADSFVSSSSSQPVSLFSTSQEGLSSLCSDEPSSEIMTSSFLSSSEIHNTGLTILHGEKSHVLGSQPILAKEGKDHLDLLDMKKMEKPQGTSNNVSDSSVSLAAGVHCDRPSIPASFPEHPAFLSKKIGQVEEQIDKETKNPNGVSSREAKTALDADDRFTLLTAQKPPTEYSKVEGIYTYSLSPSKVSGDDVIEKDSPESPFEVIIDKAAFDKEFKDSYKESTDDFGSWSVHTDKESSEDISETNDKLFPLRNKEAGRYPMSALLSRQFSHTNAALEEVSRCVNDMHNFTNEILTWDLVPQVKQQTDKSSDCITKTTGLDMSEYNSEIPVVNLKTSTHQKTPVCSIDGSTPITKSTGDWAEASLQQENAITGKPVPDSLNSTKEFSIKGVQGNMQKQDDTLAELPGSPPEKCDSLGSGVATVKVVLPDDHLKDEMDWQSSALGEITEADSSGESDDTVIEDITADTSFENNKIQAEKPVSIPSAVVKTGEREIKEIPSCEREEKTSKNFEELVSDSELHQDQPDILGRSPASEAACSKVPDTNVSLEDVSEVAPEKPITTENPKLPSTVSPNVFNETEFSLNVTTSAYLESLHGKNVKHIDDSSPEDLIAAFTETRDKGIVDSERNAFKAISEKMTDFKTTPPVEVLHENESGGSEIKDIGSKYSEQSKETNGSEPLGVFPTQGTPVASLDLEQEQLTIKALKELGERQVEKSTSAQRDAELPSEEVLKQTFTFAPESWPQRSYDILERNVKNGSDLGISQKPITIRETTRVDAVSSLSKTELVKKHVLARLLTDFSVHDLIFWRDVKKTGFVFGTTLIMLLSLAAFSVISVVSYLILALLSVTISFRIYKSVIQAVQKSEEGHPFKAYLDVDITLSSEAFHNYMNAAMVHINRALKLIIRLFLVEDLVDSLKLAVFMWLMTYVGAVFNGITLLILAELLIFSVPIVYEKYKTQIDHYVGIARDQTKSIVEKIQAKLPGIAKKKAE

Tests used:
Assay in all cases: log2 fold change, soluble protein after heating vs DMSO (PISA); higher = thermal stabilisation; K562 lysate, 10 uM; active = over 0.2 and 3.5 SD of the protein, either way, in both replicates (recomputed)
vemurafenib = compound: CCCS(=O)(=O)Nc1ccc(F)c(C(=O)c2c[nH]c3ncc(-c4ccc(Cl)cc4)cc23)c1F [vemurafenib]
In short: (§1)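 Pellets of K562 cells were dounce-homogenised in PBS pH 7.4 with 1 mM MgCl2, and the crude extract was held at 1 mg/mL protein for a 30 min treatment with 10 μM compound. Aliquots were heated for 3 min over 48°C-58°C and pooled before NP-40 was added to 0.5% at 4°C. The supernatant from 21,000xg for 90 min was quantified by TMTpro 16plex LC-MS/MS with channel sums equalised. Values are reported from duplicates as log-two fold change in thermal stability relative to solvent controls.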

[1] = compound: CCCS(=O)(=O)Nc1ccc(F)c(C(=O)c2c[nH]c3ncc(Cl)cc23)c1F
In short: as §1

barasertib = compound: CCN(CCCOc1ccc2c(Nc3cc(CC(=O)Nc4cccc(F)c4)[nH]n3)ncnc2c1)CCOP(=O)(O)O [barasertib]
In short: as §1

[2] = compound: CC[C@@H]1C(=O)N(C)c2cnc(Nc3ccc(C(=O)NC4CCN(C)CC4)cc3OC)nc2N1C1CCCC1
In short: as §1

volasertib = compound: CC[C@@H]1C(=O)N(C)c2cnc(Nc3ccc(C(=O)N[C@H]4CC[C@H](N5CCN(CC6CC6)CC5)CC4)cc3OC)nc2N1C(C)C [volasertib]
In short: as §1

[3] = compound: CCn1c(C(=O)N(C2CC2)C2CC2)cc2c3c(ncn3C)c(Nc3cc(C)n(C)n3)nc21
In short: as §1

[4] = compound: CCn1cc(-c2ccnc3[nH]c(-c4cccc(CN(C)C)c4)cc23)c(-c2ccc(NC(=O)N(C)C)cc2)n1
In short: as §1

[5] = compound: CN1CCC(CNc2ccc3ncc(-c4cccc(OC(F)(F)F)c4)n3n2)CC1
In short: as §1

saracatinib = compound: CN1CCN(CCOc2cc(OC3CCOCC3)c3c(Nc4c(Cl)ccc5c4OCO5)ncnc3c2)CC1 [saracatinib]
In short: as §1

sotrastaurin = compound: CN1CCN(c2nc(C3=C(c4c[nH]c5ccccc45)C(=O)NC3=O)c3ccccc3n2)CC1 [sotrastaurin]
In short: as §1

alvocidib = compound: CN1CC[C@H](c2c(O)cc(O)c3c(=O)cc(-c4ccccc4Cl)oc23)[C@H](O)C1 [alvocidib]
In short: as §1

Tubastatin A = compound: CN1CCc2c(c3ccccc3n2Cc2ccc(C(=O)NO)cc2)C1 [Tubastatin A]
In short: as §1

[6] = compound: CNC(=O)C1=CC=CC=C1NC2=NC(=NC=C2Cl)NC3=C(C=C(C=C3)N4CCOCC4)OC
In short: as §1

defactinib = compound: CNC(=O)c1ccc(Nc2ncc(C(F)(F)F)c(NCc3nccnc3N(C)S(C)(=O)=O)n2)cc1 [defactinib]
In short: as §1

[7] = compound: CNc1nc(-c2ccc3c(N)n[nH]c3c2)cc(N2C[C@@H](C(=O)NC3CCCCC3)CC[C@H]2C)n1
In short: as §1

encorafenib = compound: COC(=O)N[C@@H](C)CNc1nccc(-c2cn(C(C)C)nc2-c2cc(Cl)cc(NS(C)(=O)=O)c2F)n1 [encorafenib]
In short: as §1

[8] = compound: COC(=O)[C@H](CCSC)NC(=O)C1=C(C=C(C=C1)NC[C@H](CS)N)C2=CC=CC=C2
In short: as §1

alisertib = compound: COc1cc(Nc2ncc3c(n2)-c2ccc(Cl)cc2C(c2c(F)cccc2OC)=NC3)ccc1C(=O)O [alisertib]
In short: as §1

[9] = compound: COc1cc2nc(-c3cc(F)ccc3O)nc(N[C@@H]3CNC[C@H]3C(C)(C)O)c2cc1OC
In short: as §1

gefitinib = compound: COc1cc2ncnc(Nc3ccc(F)c(Cl)c3)c2cc1OCCCN1CCOCC1 [gefitinib]
In short: as §1

Measured: log2 fold change

RPS14 (UniProt P62263)
inactive: vemurafenib 0.007 | [1] 0.005 | barasertib -0.042 | [2] 0.019 | volasertib -0.006 | [3] -0.006 | [4] -0.091 | [5] 0.022 | saracatinib 0.006 | sotrastaurin 0.006 | alvocidib -0.017 | Tubastatin A 0.043 | [6] -0.027 | defactinib -0.026 | [7] 0.024 | encorafenib -0.015 | [8] 0.026 | alisertib 0.01 | [9] -0.014 | gefitinib -0.041

RPS5 (UniProt P46782)
inactive: vemurafenib -0.014 | [1] 0.017 | barasertib -0.038 | [2] -0.01 | volasertib -0.026 | [3] 0.011 | [4] 0.026 | [5] -0.023 | saracatinib -0.017 | sotrastaurin -0.047 | alvocidib 0.057 | Tubastatin A -0.001 | [6] 0.009 | defactinib 0.027 | [7] 0.04 | encorafenib -0.043 | [8] 0.035 | alisertib 0.007 | [9] -0.006 | gefitinib -0.078

RTCA (UniProt O00442)
inactive: vemurafenib 0.013 | [1] 0.057 | barasertib -0.038 | [2] 0.039 | volasertib -0.06 | [3] -0.024 | [4] -0.061 | [5] 0.043 | saracatinib 0.007 | sotrastaurin -0.009 | alvocidib 0.033 | Tubastatin A 0.022 | [6] 0.01 | defactinib -0.007 | [7] 0.049 | encorafenib 0.017 | [8] 0.005 | alisertib -0.022 | [9] 0.016 | gefitinib -0.045

RPS17 (UniProt P08708)
inactive: vemurafenib -0.011 | [1] 0.002 | barasertib -0.042 | [2] -0.014 | volasertib -0.005 | [3] -0.011 | [4] 0.188 | [5] -0.088 | saracatinib 0.01 | sotrastaurin 0.002 | alvocidib 0.048 | Tubastatin A 0.007 | [6] -0.015 | defactinib 0.008 | [7] 0.008 | encorafenib 0.013 | [8] -0.033 | alisertib 0.006 | [9] 0.003 | gefitinib -0.013

RRAGB (UniProt Q5VZM2)
inactive: vemurafenib -0.042 | [1] 0.044 | barasertib -0.013 | [2] -0.028 | volasertib 0.035 | [3] -0.011 | [4] -0.053 | [5] 0.073 | saracatinib 0.018 | sotrastaurin 0.017 | alvocidib -0.038 | Tubastatin A 0.006 | [6] 0.009 | defactinib 0.024 | [7] -0.018 | encorafenib 0.028 | [8] -0.058 | alisertib -0.007 | [9] 0.006 | gefitinib -0.044

RTN2 (UniProt O75298)
inactive: vemurafenib -0.092 | [1] -0.055 | barasertib 0.074 | [2] 0.032 | volasertib 0.014 | [3] 0.085 | [4] -0.02 | [5] 0.03 | saracatinib 0.017 | sotrastaurin 0.01 | alvocidib -0.045 | Tubastatin A 0 | [6] 0.006 | defactinib 0.042 | [7] -0.075 | encorafenib 0.047 | [8] -0.044 | alisertib 0.027 | [9] -0.105 | gefitinib 0.042

S100A13 (UniProt Q99584)
inactive: vemurafenib -0.001 | [1] -0.03 | barasertib 0.056 | [2] 0.038 | volasertib 0.04 | [3] -0.013 | [4] 0.16 | [5] 0.041 | saracatinib 0.031 | sotrastaurin 0.014 | alvocidib 0.006 | Tubastatin A 0.055 | [6] -0.039 | defactinib -0.006 | [7] -0.05 | encorafenib -0.025 | [8] 0.008 | alisertib -0.001 | [9] 0.018 | gefitinib -0.014

RRP15 (UniProt Q9Y3B9)
inactive: vemurafenib 0.05 | [1] 0.033 | barasertib -0.057 | [2] 0.065 | volasertib 0.023 | [3] 0.037 | [4] -0.011 | [5] 0.057 | saracatinib 0.002 | sotrastaurin 0.003 | alvocidib 0.018 | Tubastatin A -0.042 | [6] 0.039 | defactinib 0.029 | [7] -0.001 | encorafenib 0.033 | [8] -0.085 | alisertib 0.023 | [9] -0.018 | gefitinib 0.024

RUFY1 (UniProt Q96T51)
inactive: vemurafenib -0.033 | [1] 0.004 | barasertib 0.009 | [2] 0.01 | volasertib -0.002 | [3] 0.009 | [4] -0.021 | [5] 0.019 | saracatinib -0.002 | sotrastaurin 0 | alvocidib 0.015 | Tubastatin A -0.011 | [6] 0.008 | defactinib 0.021 | [7] -0.03 | encorafenib 0.017 | [8] -0.058 | alisertib -0.008 | [9] -0.011 | gefitinib 0.011

RWDD1 (UniProt Q9H446)
inactive: vemurafenib -0.045 | [1] 0 | barasertib 0.032 | [2] 0.016 | volasertib 0.009 | [3] -0.008 | [4] 0.08 | [5] -0.071 | saracatinib -0.002 | sotrastaurin -0.051 | alvocidib 0.056 | Tubastatin A 0.058 | [6] -0.008 | defactinib 0.007 | [7] 0.041 | encorafenib -0.004 | [8] -0.033 | alisertib -0.022 | [9] -0.002 | gefitinib 0.061

RRM2 isoform 2 (UniProt P31350)
inactive: vemurafenib -0.016 | [1] -0.001 | barasertib 0.005 | [2] 0.055 | volasertib 0.05 | [3] -0.02 | [4] 0.01 | [5] 0.031 | saracatinib -0.009 | sotrastaurin -0.001 | alvocidib 0.015 | Tubastatin A 0.032 | [6] 0.027 | defactinib 0.011 | [7] 0.031 | encorafenib 0.003 | [8] 0.015 | alisertib 0.004 | [9] -0.013 | gefitinib 0.008

RRP1 (UniProt P56182)
inactive: vemurafenib 0.052 | [1] 0.059 | barasertib 0.06 | [2] -0.142 | volasertib -0.034 | [3] 0.11 | [4] 0.097 | [5] -0.091 | saracatinib -0.02 | sotrastaurin 0.019 | alvocidib 0.066 | Tubastatin A -0.064 | [6] -0.018 | defactinib -0.023 | [7] -0.18 | encorafenib 0.079 | [8] 0.107 | alisertib 0.026 | [9] 0.018 | gefitinib 0.02

RPL9 (UniProt P32969)
inactive: vemurafenib -0.011 | [1] 0.007 | barasertib -0.027 | [2] -0.005 | volasertib 0.003 | [3] -0.039 | [4] 0.028 | [5] -0.055 | saracatinib -0.001 | sotrastaurin -0.049 | alvocidib 0.02 | Tubastatin A -0.02 | [6] 0.007 | defactinib 0.033 | [7] 0.025 | encorafenib 0.034 | [8] 0.034 | alisertib 0.014 | [9] -0.014 | gefitinib -0.05

RPS15A (UniProt P62244)
inactive: vemurafenib -0.024 | [1] -0.018 | barasertib 0.003 | [2] -0.062 | volasertib -0.03 | [3] 0.026 | [4] 0.123 | [5] -0.025 | saracatinib -0.009 | sotrastaurin 0.023 | alvocidib -0.01 | Tubastatin A -0.031 | [6] -0.001 | defactinib 0.005 | [7] 0.04 | encorafenib -0.009 | [8] 0.039 | alisertib 0.008 | [9] 0.001 | gefitinib -0.002

RPS25 (UniProt P62851)
inactive: vemurafenib -0.001 | [1] -0.011 | barasertib -0.042 | [2] -0.004 | volasertib -0.005 | [3] -0.015 | [4] -0.078 | [5] 0.033 | saracatinib 0.015 | sotrastaurin -0.016 | alvocidib 0.02 | Tubastatin A 0.034 | [6] -0.003 | defactinib -0.022 | [7] 0.034 | encorafenib -0.039 | [8] 0.027 | alisertib -0.001 | [9] 0.007 | gefitinib -0.007

RTN3 isoform 5 (UniProt O95197)
inactive: vemurafenib -0.063 | [1] 0.105 | barasertib 0.062 | [2] -0.058 | volasertib 0.07 | [3] -0.013 | [4] -0.012 | [5] -0.067 | saracatinib 0 | sotrastaurin 0.035 | alvocidib 0.214 | Tubastatin A 0.12 | [6] 0.128 | defactinib 0.102 | [7] 0.005 | encorafenib 0.045 | [8] 0.056 | alisertib 0.04 | [9] -0.022 | gefitinib -0.046

2 neighbouring records out of the list so far, for reference:
RPS25 (UniProt P62851)
inactive: vemurafenib -0.001 | [1] -0.011 | barasertib -0.042 | [2] -0.004 | volasertib -0.005 | [3] -0.015 | [4] -0.078 | [5] 0.033 | saracatinib 0.015 | sotrastaurin -0.016 | alvocidib 0.02 | Tubastatin A 0.034 | [6] -0.003 | defactinib -0.022 | [7] 0.034 | encorafenib -0.039 | [8] 0.027 | alisertib -0.001 | [9] 0.007 | gefitinib -0.007

RTN3 isoform 5 (UniProt O95197)
inactive: vemurafenib -0.063 | [1] 0.105 | barasertib 0.062 | [2] -0.058 | volasertib 0.07 | [3] -0.013 | [4] -0.012 | [5] -0.067 | saracatinib 0 | sotrastaurin 0.035 | alvocidib 0.214 | Tubastatin A 0.12 | [6] 0.128 | defactinib 0.102 | [7] 0.005 | encorafenib 0.045 | [8] 0.056 | alisertib 0.04 | [9] -0.022 | gefitinib -0.046
